# Laboratory results: PubChem BioAssay AID652243 (Drosophila RNAi Screening Center, 2013)
# Screen: 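Fly regulators of androgen-dependent reporter output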 (primary screen)
# Cells: Drosophila S2R+ cells
# Reagents: long dsRNA against Drosophila genes
# Timing: 72 h (48 h, then 24 h hormone)
# Challenge: synthetic androgen R1881 at 10 nM for 24 h
# Detection: 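Per-well raw luminescence of the androgen-driven firefly reporter and of the Renilla control, two replicates each, without normalisation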
# Direction: firefly reporter light: higher = more light from androgen-responsive reporter; Renilla control light: higher = more constitutive control signal (cell number, transfection)
# Rule for the call: 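Hit when the log firefly-to-Renilla ratio dropped or increased by a fixed fold versus the mean of GFP or LacZ controls across duplicate plates; lowering cut given as 1.5 and as 3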
# Meaning of the calls: active = hit: reporter lowered or raised; inactive = no hit
# The screen tested about 24,000 reagents; shown is an unselected part of those that have a named target and a result. Over the whole deposit, 246 (1%) were called active. 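Plates not normalised; calls are printed but the firefly/Renilla ratio behind them is not deposited; fold cut for lowering reported inconsistently.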 Raw values are not corrected between plates. Reagents against one gene are numbered here. Reagent sequences are not shown. Not stated in the record: the amount of reagent.
Gene,reagent,"firefly reporter light, replicate 1","firefly reporter light, replicate 2","Renilla control light, replicate 1","Renilla control light, replicate 2",outcome
CG30047,1,76080,56583,2.22e5,3.00e5,inactive
Or30a (Odorant receptor 30a),1,3.09e5,3.11e5,1.61e6,2.07e6,inactive
CG9757,1,2.74e5,2.04e5,3.89e6,3.46e6,inactive
CG9757,2,5.58e5,5.50e5,2.37e6,1.97e6,inactive
CG9757,3,8.17e5,6.89e5,1.01e6,1.04e6,inactive
CG31680,1,1.02e6,7.08e5,1.31e6,1.15e6,inactive
Rab3-GEF (Rab3 GDP-GTP exchange factor),1,4.29e5,4.23e5,3.06e6,3.03e6,inactive
Rab3-GEF (Rab3 GDP-GTP exchange factor),2,4.59e5,5.43e5,4.36e6,4.67e6,inactive
Rab3-GEF (Rab3 GDP-GTP exchange factor),3,3.68e5,2.01e5,5.25e5,4.93e5,inactive
CG3515,1,91531,73406,7.24e5,6.81e5,inactive
CG12868,1,50353,64104,6.82e5,6.82e5,inactive
CG12868,2,5.59e5,4.59e5,6.11e5,7.15e5,inactive
"ValRS-m (Valyl-tRNA synthetase, mitochondrial)",1,2.58e5,2.59e5,2.71e6,2.20e6,inactive
CG5188,1,1.09e5,52406,1.08e6,8.18e5,inactive
Syx6 (Syntaxin 6),1,7.27e5,1.12e6,9.98e5,1.62e6,inactive
Syx6 (Syntaxin 6),2,2.72e5,2.89e5,8.04e5,4.99e5,inactive
CG7376,1,7.56e5,1.17e6,1.04e6,2.05e6,inactive
Osi14 (Osiris 14),1,17665,22279,7.84e5,1.03e6,inactive
Osi14 (Osiris 14),2,2.47e5,2.37e5,6.51e5,7.47e5,inactive
Hsp110 (Heat shock protein 110),1,9.38e5,9.38e5,1.15e6,1.83e6,inactive
Hsp110 (Heat shock protein 110),2,2.58e5,2.58e5,4.14e5,4.52e5,inactive
rod (rough deal),1,1.72e5,1.25e5,2.49e6,2.05e6,inactive
CG33489,1,2.14e5,2.35e5,2.48e6,1.68e6,inactive
CG33489,2,3.15e5,2.97e5,4.14e5,4.15e5,inactive

Not a retest: 3 of the entries above.
Gene,reagent,"firefly reporter light, replicate 1","firefly reporter light, replicate 2","Renilla control light, replicate 1","Renilla control light, replicate 2",outcome
"ValRS-m (Valyl-tRNA synthetase, mitochondrial)",1,2.58e5,2.59e5,2.71e6,2.20e6,inactive
CG5188,1,1.09e5,52406,1.08e6,8.18e5,inactive
Syx6 (Syntaxin 6),1,7.27e5,1.12e6,9.98e5,1.62e6,inactive
